Over roughly 33,000 sequences, “E-score (-0.5 to 0.5)” has its median near -0.0034; the highest 2% begin near 0.25. The list shows a part of the results.
Each sequence was assayed against T1, Yap3 (UniProt P38749) (assay: PBM E-score (8-mer binding enrichment) (E-score (-0.5 to 0.5)); higher = stronger / more preferred TF binding). Conditions: protein concentration: 100 nM; construct: GST-full length.
T1 sequence: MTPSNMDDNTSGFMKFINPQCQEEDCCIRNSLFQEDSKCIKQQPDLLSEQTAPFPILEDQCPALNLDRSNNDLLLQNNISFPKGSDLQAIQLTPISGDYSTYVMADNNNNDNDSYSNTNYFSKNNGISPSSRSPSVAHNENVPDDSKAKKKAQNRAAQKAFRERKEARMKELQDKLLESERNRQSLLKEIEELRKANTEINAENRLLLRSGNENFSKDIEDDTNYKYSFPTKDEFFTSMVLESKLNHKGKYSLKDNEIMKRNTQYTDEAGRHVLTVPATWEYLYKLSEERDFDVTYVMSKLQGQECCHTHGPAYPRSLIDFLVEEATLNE
In short: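 The E-score, a modified Wilcoxon-Mann-Whitney statistic, was computed by the Universal PBM Analysis Suite for every ungapped eight-base word pooled with its reverse complement. Scans behind it were normalised with masliner after bound GST-tagged yeast transcription factors were detected with fluorescent anti-GST. The proteins, at about 100-200 nM, had been applied to universal all-10-mer Agilent arrays made double-stranded by primer extension.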

Sequence | PBM E-score
AACGGCCT | -0.153
CCTAAGTA | 0.112
AGTTAGAA | 0.0548
CCGGTGTA | -0.0878
CCCTTAAG | -0.0249
AGTCTATC | -0.0771
CTCGTGGC | -0.159
CCCCGATA | -0.116
GGTGAACC | -0.0423
AGGCCTGA | -0.0433
AGTGGCTG | -0.0211
GAGGAGTA | 0.01
GCAACGTA | 0.124
CACACTTA | 0.0527
AGCACTAT | 0.0238
CTATGTAA | 0.104
ATCGAATG | 0.189
CGATCCAA | -0.158
GGATCATA | -0.0339
CCATATAG | 0.0214
TAGGTGGA | 0.0552
CGTATGGA | 0.0201
CGACCAAA | 0.174
GTTCTCCA | 0.033
AACTAGTT | 0.0859

Part of the list above, with each value named:
CTCGTGGC
  PBM E-score: -0.159
CCCCGATA
  PBM E-score: -0.116
GGTGAACC
  PBM E-score: -0.0423

(cont.)

Sequence | PBM E-score
AAATATAC | 0.19
ATACCGAC | -0.075
ATTAACTA | 0.229
CCAACTGG | 0.00781
GGCTAACA | -0.0559
ACTCGTAC | -0.0614
GCTGAGTA | 0.0149
ATATACCA | 0.213
ATTAATGG | 0.185
AAGAAACA | 0.217
TACCACTA | 0.0932
GGGCACCC | -0.424
ACCAGTAT | 0.0555
CCGATTAC | 0.0783
AATTGAGA | 0.101
GAGGCCAA | -0.0373
ATCAAATC | 0.197
CAGGACAG | -0.0314
CGGGAGGA | -0.192
AGGGCAGG | -0.253
AGAATACA | 0.191
GATGGCGA | 0.0553
TGCTAACA | -0.0164
ATTGGATA | 0.161
CGTTTCAA | 0.0256

Sequence | PBM E-score
GTAGACCA | -0.0918
AATATCGT | 0.167
ACTGGGTA | -0.0875
AAATTTCA | 0.0121
ACCTGGCA | 0.0301
ATCTTATG | 0.0696
CCCTAATA | 0.0505
GCTGTTGA | 0.126
GCATTCAA | 0.0939
GAGACATA | 0.167
CGATCACA | 0.152
ACGATGAG | 0.0506
GTGTGCAA | 0.081
AATTAAGA | 0.154
GATCTTCA | 0.0256
GCCTTTTA | -0.0778
ACTAAAAA | 0.186
CAATGACA | 0.148
CTACAGCA | -0.0455
GAGACCAA | 0.14
ACTAGTAC | 0.0353
CTCGAAAG | -0.102
ACTCCCAA | -0.00646
CGTTCTAG | -0.00341
CTAGACAG | -0.00572

Sequence | PBM E-score
ACATTAGC | 0.0809
ACTATGAT | 0.0862
ACTTACTC | 0.0147
CATTAGAA | 0.123
ATGGGACA | -0.063
GCACGGCC | -0.0946
ACCACGAG | 0.0948
AGCTTGTC | -0.138
AATGATCG | -0.0139
ATTTATAG | 0.206
CGCCCGTA | -0.138
CGCCTCGC | -0.0441
CCACCCCA | -0.0156
ATATTACG | 0.412
CGGACGCA | -0.14
CGACCGCG | -0.129
ACACACCT | 0.156
CGCCTGAG | -0.281
GAAATAAA | 0.14
AATGGTAA | 0.139
CAAACTGA | 0.0396
CATAAGTA | 0.0648
CTGTTGCA | 0.0755
AGACTGGC | -0.21
ACCTCTTC | 0.0473

Sequence | PBM E-score
GCTATCTA | -0.149
GAGGGCCA | -0.104
AAAACGCC | 0.034
CGTTAAGC | 0.124
AAAACACT | 0.138
CTTCACTC | 0.0393
GGCTTACC | -0.109
AAGCCGTG | -0.0151
CGGGTTTC | 0.143
AACAGATT | 0.0661
ATATCCTG | -0.00352
CGGTTAAC | -0.0649
AGGCCTAC | 0.0567
CGGTATAA | 0.18
TCCCAGCA | -0.0642
ATTCATTA | 0.174
CATTGTGG | 0.0578
GACCTCAC | -0.143
CATCGTTA | 0.0683
CCCTAACA | 0.246
GAACGTAA | 0.193
GAGTCTGC | -0.114
AAGCTGTC | -0.113
GTACTGGA | 0.073
AGTCCCGC | -0.163

Sequence | PBM E-score
ACGTTGGA | -0.0317
CAGCCTTC | -0.144
AGAACGTC | -0.0436
GATTCTCA | -0.0856
AGGCCCTC | -0.157
AACGAGAT | 0.11
CCAAGTAC | -0.0358
AGGCATCG | -0.177
ACCTGCGC | -0.0863
AGGGACGC | -0.114
ACAGACTG | -0.0824
ATGATTAA | 0.274
TCACACGA | 0.0224
AGTATCGG | 0.0265
ACATTCGT | 0.0616
GAAGCGAA | -0.0424
TACACTGA | 0.0774
GCCCTGAC | -0.19
AGACGTCG | 4e-05
GACGGTAA | 0.0471
CACCTATA | -0.0571
ATCGGCCG | -0.142
CAATTAGG | -0.00825
CTCCAATA | 0.168
ACAAAGGA | 0.103

As a working copy, part of the list above:
Sequence | PBM E-score
CAGCCTTC | -0.144
AGAACGTC | -0.0436
GATTCTCA | -0.0856
AGGCCCTC | -0.157
AACGAGAT | 0.11
CCAAGTAC | -0.0358

The list continues.

Sequence | PBM E-score
AAAGGACA | 0.0199
ACAAATGC | 0.149
CGGAAACC | -0.185
AGAAAACA | 0.186
TAGCCGCA | -0.207
GTCATGGA | -0.0689
ATTAATTC | 0.3
AGGGATCA | -0.0434
AGCAACCC | -0.161
CACTGAGC | -0.114
GTGAGAAC | -0.158
CCCTCAAA | -0.0386
GTAAAGAC | 0.158
AACGGGGT | -0.255
CATGGACA | -0.0959
CAGCTATG | -0.125
CCGCTTGA | -0.0909
GATCGACC | 0.00273
ACCCGACC | -0.189
TAGGGCAA | -0.0175
CAGTCATA | -0.0324
ATAATGTA | 0.292
